# Source: US9393216B2, “Vaginal matrices: nanofibers for contraception and prevention of HIV infection” (priority 2012, dated 2016)
# For some of these results: At least one structure is not confirmed: it was looked up by name or label, or the drawing left a doubt. Some results were stated once for a whole list of compounds, not compound by compound.
# Assays:
# [1] = Drug release from fiber meshes in vaginal fluid simulant (VFS); type: physicochemical
# [2] = In vitro release of TFV and LNG from PVA fabrics in 1:1 isopropanol:water; type: physicochemical
# Protocol: Drug loading is analyzed by dissolving approximately 5 mg of fibers in 20 mL of a mixture of 1:1 isopropanol:water in a glass vial. Triplicate samples are allowed to dissolve overnight at 37° C. on a rotational shaker and concentration is quantified using a Shimadzu Prominence LC20AD UV-HPLC system. A Phenomenex Luna C18 column (5 μM, 250×4.6 mm) and LC Solutions software are used to analyze samples.
# A method for dual analysis of TFV and LNG is developed using the following gradient method using mobile phase A (0.1% formic acid in water) and mobile phase B (acetonitrile). The run consisted of 0-5 minutes 72% mobile phase A, 5-10 minutes ramp to 15% mobile phase A, 10-20 minutes 15% mobile phase A, 20-25 minutes ramp to 72% mobile phase A, 25-30 minutes 72% mobile phase A. The total method time is 30 minutes, with an oven temperature of 30° C., a flow rate of 1 mL/min, and an injection volume of 20 μL. LNG is detected at 238 nm at a retention time of 18.5 minutes. TFV is detected at 259 nm at a retention time of 2.3 minutes.
# In vitro release was analyzed in a 1:1 solution of isopropanol:water due to the limited solubility of LNG in water. Sink conditions were maintained throughout the study for both drugs in the release media. Approximately 5 mg of fibers were prepared in triplicate and an appropriate volume of release media was added to maintain sink conditions of 2.6 mg/mL LNG as has been reported. Samples were incubated at 37° C. on a rotational shaker, and 200 μL samples of release media was taken as indicated. Fresh media was added to replace sample volume at each timepoint.
# [3] = single-drug PVA fibers, calculated for assumed 500 mg of fabric
Structure (SMILES),Time of burst release from PLLA/PEO fibers [1],"Cumulative mass of drug released after 15 minutes [2, 3]","Cumulative mass of drug released after 60 minutes [2, 3]",Time to 100% LNG release ([2]; single-drug or 1:1 TFV:LNG PVA fabrics)
"Cc1cn([C@H]2C[C@H](N=[N+]=[N-])[C@@H](CO)O2)c(=O)[nH]c1=O [AZT, 3′-azido-3′-deoxythymidine]",≤ 1 h,–,–,–
"C#C[C@]1(O)CC[C@H]2[C@@H]3CCC4=CC(=O)CC[C@@H]4[C@H]3CC[C@@]21CC [LNG, levonorgestrel]",–,~20 mg,~40 mg,240 min
